# The list shows a part of the results. These are further read-outs of the screen, such as a control signal, another cell line or another target. No call is given for them. Compounds called inactive in the main read-out are mostly missing here. Potencies come from curve fits of mixed quality, noted in brackets.
# Test: qHTS Assay for Lipid Storage Modulators in Drosophila S3 Cells;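 on cell number change: cells counted by Cell Tracker Red CMTPX staining in the red channel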
# Settings: BODIPY lipid droplet fluorescence, 18-24 h; for cell number change: measured here: cell count max response, cells fed with added oleic acid
# Outline: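 Drosophila S3 cells got compounds at several concentrations plus oleic acid (400 uM solution). Laser-scanning cytometry with 488 nm excitation read lipid droplets at 500-530 nm and cells at 575-640 nm. Percent activity was relative to 20 uM Triacsin C.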
# [1] = measured here: lipid fluorescence (Fed channel) AC50, cells fed with added oleic acid
# [2] = measured here: cell number channel AC50, cells fed with added oleic acid
Structure (SMILES),cell number change [%],AC50 [1],AC50 [2]
O=C(Nc1cccc(-n2cnnn2)c1)c1cccnc1,12.8,–,–
COc1ccccc1-n1c(CNC(=O)c2ccco2)nnc1SCC(=O)Nc1cc(C)ccc1C,-0.575,"6.51 µM [rising, single point]",–
COc1cccc(/C=N/n2cnnc2)c1OCc1ccccc1,56.5,–,"29.1 µM [rising, single point]"
CNC(=O)c1ccc(CNC(=O)OCC(F)(F)F)cc1,-14,"6.51 µM [rising, single point]",–
C[C@H](NC(=O)c1ccco1)C(=O)Nc1ccc(S(=O)(=O)N2CCCC2)cc1,-14.3,"0.92 µM [falling, full curve]","0.731 µM [falling, full curve, poor fit]"
CCCC(=O)N(C1CC(C)C(C#N)(C#N)C1(C#N)C#N)N(C)C (centres undefined),-64.9,"4.11 µM [falling, full curve]","5.17 µM [falling, partial curve]"
Cc1cc(C)nc(SCc2cnc(C)nc2N)n1,–,"6.51 µM [falling, single point]","6.51 µM [falling, single point]"
c1ccc(-c2cc3c(N4CCOCC4)ncnc3s2)cc1,-17.4,"0.00517 µM [falling, full curve, poor fit]",–
COc1ccc2nc(SCC(=O)Nc3cc(C)on3)c(C#N)cc2c1,20.5,"29.1 µM [rising, partial curve, poor fit]","6.51 µM [rising, single point]"
N#CC1=C(N)OC2=C(CCc3ccccc32)C1c1ccccc1 (centres undefined),-8.76,–,–
CCCC(=O)Nc1ccccc1NC(=O)c1cc(OC)c(OC)c(OC)c1,–,"6.51 µM [falling, single point]","0.184 µM [falling, full curve, poor fit]"
COc1ccccc1NC(=O)c1ccccc1Nc1ccccc1,–,–,"0.58 µM [rising, single point]"
CC(=O)c1ccc(NC(=O)c2ccc(S(=O)(=O)N3CCCC3)cc2)cc1,12,"2.31 µM [rising, partial curve, poor fit]",–
CCC(NC(C)C)C(O)c1ccc(O)c2[nH]c(=O)ccc12 (centres undefined),-14.1,"0.116 µM [falling, full curve]",–
COc1ccccc1CNC(=O)CCNS(=O)(=O)c1ccc2[nH]c(=O)oc2c1,-7.37,"29.1 µM [rising, single point]",–
COc1cc(OC)c(NC(=O)c2ccoc2C)cc1Cl,5.94,"9.2 µM [rising, partial curve]",–
CC1(C)CC2(CC(C)(C)NC(=O)N2)NC(=O)N1,-35.4,"0.651 µM [falling, full curve]","0.291 µM [falling, full curve]"
CC[C@@]12C(=O)N(c3cccc(F)c3)C(=O)N1[C@H](c1cccc(C)c1)[C@@H]1C(=O)N(Cc3ccccc3)C(=O)[C@@H]12,12.3,"6.51 µM [rising, single point]",–
COc1ccc([N+](=O)[O-])cc1NC(=O)Cc1ccccc1Cl,–,"8.2 µM [rising, partial curve]",–
N#Cc1nc(COc2ccc(Cl)cc2Cl)oc1N1CCN(c2ccccc2)CC1,19.5,"29.1 µM [rising, single point]","0.291 µM [rising, full curve, poor fit]"

Structure (SMILES),cell number change [%],AC50 [1],AC50 [2]
CCCn1c(SCC(=O)Nc2ccccc2Cl)nc(O)cc1=O,–,–,"6.51 µM [rising, partial curve, poor fit]"
O=C(NC1CCCCC1)c1cc(-c2ccc(Cl)cc2)on1,21.8,–,–
Cc1cc(C)cc(NC(=O)CSc2nncn2-c2ccccn2)c1,15,"29.1 µM [rising, single point]",–
CCCCOc1ccc(-c2cnc3ccccc3n2)cc1,-4.04,"0.58 µM [falling, partial curve]","0.517 µM [falling, full curve, poor fit]"
COC(=O)c1ccc(NC(=O)C[n+]2ccccc2C)cc1,7.97,"6.51 µM [rising, single point]",–
COc1ccccc1CC(NC(C)=O)C(=O)NC1CCN(S(=O)(=O)c2ccc(NC(C)=O)cc2)CC1 (centres undefined),10.3,"5.17 µM [rising, single point]",–
Cc1c(NC(=S)NC(=O)C2CCCCC2)c(=O)n(-c2ccccc2)n1C,-4.03,"29.1 µM [rising, single point]",–
O=C(COC(=O)c1c(Cl)ccc(Cl)c1Cl)NC(=O)NCc1ccccc1,30.7,"18.4 µM [rising, single point]","0.92 µM [rising, partial curve]"
O=C(Nc1ccc2nc(-c3cccs3)c(-c3cccs3)nc2c1)N1CCOCC1,–,"0.82 µM [rising, single point]","2.31 µM [rising, partial curve]"
N#Cc1ccc(S(=O)(=O)N2CCN(c3ncccn3)CC2)cc1,-47.7,"0.0731 µM [falling, full curve, poor fit]","0.92 µM [falling, full curve]"
COc1ccc(Cl)cc1NC(=O)COC(=O)C1CC1,2.12,"0.0058 µM [rising, full curve, poor fit]",–
Cc1ccc2cc(C)c3nnc(SCC(=O)NCc4ccco4)n3c2c1,-8.51,–,–
COC(OC)c1ccnc(-c2ccc(OC(C)=O)cc2)n1,0.911,"2.31 µM [rising, single point]","2.31 µM [rising, single point]"
O=C1OC(Cc2ccccn2)C(O)=C1C1=NCCCN1 (centres undefined),61.1,"20.6 µM [rising, partial curve]","29.1 µM [rising, single point]"
Cc1ccc(NC(=O)C2SC(=Nc3ccccc3)C(C(=O)Nc3ccc(Cl)cc3)=C2N)cc1 (centres undefined),-18.7,"0.126 µM [falling, full curve, poor fit]",–
O=C(N/N=C/c1ccccn1)c1cc(-c2ccc(Br)s2)[nH]n1,-3.85,–,–
Cc1cccc(C)c1Nc1nnc(SCC(=O)NC2CCS(=O)(=O)C2)s1 (centres undefined),-24.7,–,–
O=C(CCn1c(=O)oc2ccccc21)N1CCN(C(c2ccccc2)c2ccccc2)CC1,12.9,–,–
Cc1ccc(CN2CCSc3ccc(C(=O)N4CCOCC4)cc32)cc1,-14.2,"29.1 µM [falling, single point]",–
Cc1cc(/C=N/O)c(C)n1-c1ccccc1,5.35,"5.8 µM [rising, partial curve, poor fit]",–

Structure (SMILES),cell number change [%],AC50 [1],AC50 [2]
COc1ccc(N2CCN(C(=O)CSc3nnc4c(C)cc5cc(C)ccc5n34)CC2)cc1,8.98,"0.58 µM [rising, full curve]",–
Cc1cc(N/N=C/c2ccc(O)cc2O)nc(-c2ccccc2O)n1,-35,"23.1 µM [falling, partial curve]","0.82 µM [rising, partial curve, poor fit]"
O=C1OC(c2ccccc2)=C/C1=C/N1CCCCC1,-27.5,"29.1 µM [falling, single point]",–
CCCNC(=O)NC(=O)COC(=O)c1ccc(OC)c(S(=O)(=O)N2CCCc3ccccc32)c1,-34.7,–,–
CCCC(=O)NC(NC(=S)Nc1c(C)n(C)n(-c2ccccc2)c1=O)C(Cl)(Cl)Cl (centres undefined),-8.18,"6.51 µM [falling, single point]",–
CCc1nc2ccc(C(=O)N3CCN(c4ccccc4F)CC3)cc2nc1CC,11.8,"29.1 µM [rising, partial curve]",–
CC(C)c1ccc(/C=C2\SC(=O)N(CC(=O)NCCCn3ccnc3)C2=O)cc1,-4.58,"29.1 µM [rising, single point]",–
O=C(NC1CCCc2ccccc21)C1CCN(C(=O)c2sccc2-n2cccc2)CC1 (centres undefined),–,"16.4 µM [rising, partial curve]",–
CCc1cccc(C)c1NC(=O)Nc1ccc2c(c1)OCO2,55.4,–,"29.1 µM [rising, single point]"
CC(C)c1ccc(NC(=O)CSc2nc3c(c(=O)[nH]2)CCC3)cc1,-4.17,"18.4 µM [falling, partial curve]",–
COc1ccc2ccc3c(c2c1)N=CC1(O3)N(C)c2ccccc2C1(C)C (centres undefined),-34,"2.91 µM [falling, partial curve, poor fit]","3.66 µM [falling, partial curve, poor fit]"
O=C(Nc1ccccc1N1CCCCC1)c1ccc(F)c(S(=O)(=O)N2CCOCC2)c1,15.7,–,–
COC(=O)c1nn(C23CC4CC(CC(C4)C2)C3)c2c1C(=O)N(c1ccc(Br)cc1)C2=O,–,–,"0.0058 µM [rising, full curve, poor fit]"
CC(C)Cc1nnc(NC(=O)CN2C(=O)c3ccccc3C2=O)s1,7.32,"0.92 µM [falling, single point]",–
CCC(CC)C(=O)c1c[nH]c(C(=O)O)c1,-28.4,–,"4.61 µM [falling, full curve, poor fit]"
O=C(c1ccc(S(=O)(=O)N2CCOCC2)cc1)N(c1ccccn1)C1CCCCC1,-0.64,–,–
CCN(CC(=O)NCc1cccs1)CC(=O)Nc1ccccc1C,-0.194,"0.116 µM [rising, full curve, poor fit]",–
Cc1ccc(NC(=O)CN(Cc2ccco2)Cc2ccccc2O)cc1C,-0.87,–,–
O=C(Nc1ccc(F)cc1)C1CCCN1S(=O)(=O)c1ccc(Br)cc1 (centres undefined),-13.8,"35.5 µM [falling, single point]",–

# From PubChem BioAssay AID2685 (National Center for Advancing Translational Sciences (NCATS), 2010)
